Percent viability data for 34 molecules are collected here from the supplement of paper PMC8256030.

SMILES strings stand for the structures. “And” between values parts separate entries of the source, which are not always exact repeats. Identical values can stand only once. Counter-ions that a name gives are not always drawn. The list shows a part of the results. Single values are uncertain here, since repeats match poorly.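 HEK293T cells were given each compound shortly before transfection with a reporter in which red mCherry is followed by the SARS-CoV-2 frameshift element and then GFP in the −1 frame, so GFP appears only after frameshifting.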

The test system of this assay is HEK293T. Nature of the assay: percent viability (nuclei count) relative to control; higher = more viable cells. The note with it: 10 µM; 24 h.
As for `CC1=C(C(=O)O)N2C(=O)[C@@H](NC(=O)[C@H](N)C3=CCC=CC3)[C@H]2SC1` [Velosef], the percent viability came to 107%.
Under `CCC(C(=O)O)c1ccc(N2Cc3ccccc3C2=O)cc1` (centres undefined) [indobufen] stands 80.7%; under `CC[C@]12CCCN3CCc4c(n(c5ccccc45)[C@@](O)(C(=O)OC)C1)[C@@H]32` [vincamine], 17.7%.
Take `CC1CC(=O)NN=C1c1ccc(NN=C(C#N)C#N)cc1` (centres undefined) [simendan]: the percent viability is 52%.
Consider `COCCCN1CCN(c2ccccc2OC)CC1` [dimetholizine], for which the percent viability is 209%.
To `O=C(O)[C@@H]1[C@H]2C[C@H]3c4[nH]c5ccccc5c4CCN3C[C@@H]2CC[C@@H]1O` [yohimbic acid] belongs 200%.
Under `Cn1c(=O)c2[nH]cnc2n(C)c1=O` [Aminophylline] stands 141%; under `CC(=O)O[C@H]1C[C@@]2(C)[C@@H](C[C@@H](O)[C@H]3[C@@]4(C)CC[C@@H](O)[C@@H](C)[C@@H]4CC[C@@]32C)/C1=C(\CCC=C(C)C)C(=O)O` [fusidic acid], 219%.
Under `CC(C)Cc1ccc(C(C)C(=O)O)cc1` (centres undefined) [ibuprofen] stands 235% and 174%; under `Cc1onc(-c2c(F)cccc2Cl)c1C(=O)N[C@@H]1C(=O)N2[C@@H]1SC(C)(C)[C@@H]2C(=O)O` [Floxacillin], 42.8%.
On to `C[C@@H](O)[C@H]1C(=O)N2C(C(=O)O)=C(S[C@@H]3CN[C@H](C(=O)Nc4cccc(C(=O)O)c4)C3)[C@H](C)[C@H]12` [ertapenem], for which the percent viability worked out at 105%.
Regarding `CN1N=C(C(N)=O)CCC1=O` [medazomide], the percent viability was 49.9%.
Under `CCOc1c(N2CCOCC2)cnn(C)c1=O` [emorfazone] stands 192%.
Under `C[C@@H]1C/C=C/C=C/C=C/C=C/[C@H](O[C@@H]2O[C@H](C)[C@@H](O)[C@H](N)[C@@H]2O)C[C@@H]2O[C@](O)(C[C@@H](O)C[C@H]3O[C@@H]3/C=C/C(=O)O1)C[C@H](O)[C@H]2C(=O)O` stands 188%; under `CN1C2CCCC1CC(NC(=O)c1nn(C)c3ccccc13)C2` (centres undefined) [granisetron], 133%; under `CC(C)(CO)C(O)C(=O)NCCCO` (centres undefined) [panthenol], 280%.
As to `COc1cc2nc(N3CCN(C(=O)C4COc5ccccc5O4)CC3)nc(N)c2cc1OC` (centres undefined) [doxazosin], the percent viability is 183% and 326%.
To `CCC(CC)[C@H](NC(C)=O)[C@@H]1[C@H](O)[C@@H](C(=O)O)C[C@H]1NC(=N)N` [Peramivir] belongs 275%.
For `COc1cc(C(=O)NCc2ccc(OCCN(C)C)cc2)cc(OC)c1OC` [trimethobenzamide], the percent viability was 214%.
To `CC(=O)c1ccc2c(c1)N(CCCN(C)C)c1ccccc1S2` [acepromazine] belongs 5.63%.
To `Cc1cc(/C=C/C#N)cc(C)c1Nc1ccnc(Nc2ccc(C#N)cc2)n1` [rilpivirine] belongs 131%; to `Cc1ccc(S(=O)(=O)NC(=O)N[C@H]2[C@H]3CC[C@@](C)([C@H]2O)C3(C)C)cc1` [glibornuride], 116%; to `COc1ccc(N(CCCC(=O)O)C(=O)c2ccc(Cl)cc2)cc1` [clanobutin], 358%.
Under `C[C@]12C=CC(=O)C=C1CC[C@@H]1[C@@H]2[C@@H](O)C[C@@]2(C)[C@H]1CC[C@]2(O)C(=O)COP(=O)(O)O` stands 192%; under `Nc1nc2ccc(OC(F)(F)F)cc2s1`, 306%; under `COc1cc(NS(=O)(=O)c2ccc(N)cc2)nc(OC)n1` [sulfadimethoxine], 86% and 220%.
As to `Cc1cc(NC(=O)C2=C(O)c3ccccc3S(=O)(=O)N2C)no1`, the percent viability turned out to be 224%.
To `CS(=O)(=O)c1ccc([C@@H](O)[C@@H](CF)NC(=O)C(Cl)Cl)cc1` [florfenicol] belongs 177%; to `CO/N=C1\C[C@]2(C[C@@H]3C[C@@H](C/C=C(\C)C[C@@H](C)/C=C/C=C4\CO[C@@H]5[C@H](O)C(C)=C[C@@H](C(=O)O3)[C@]45O)O2)O[C@H](/C(C)=C/C(C)C)[C@H]1C` [moxidectin], 42.3%; to `Nc1nc2c(c(=O)[nH]1)N(C=O)C(CNc1ccc(C(=O)N[C@@H](CCC(=O)O)C(=O)O)cc1)CN2` (some centres undefined), 125%.
To `CCCCCCC[N+](CC)(CC)CCCCc1ccc(Cl)cc1` [clofilium tosylate] belongs 89.9%.
To `CC(=O)OCC(COC(C)=O)OC(C)=O` [triacetin] belongs 86.9%; to `CC(=O)SC[C@H](Cc1ccccc1)C(=O)NCC(=O)OCc1ccccc1` [dexecadotril], 267%; to `C/C(=C\C(=O)OCCCCCCCCC(=O)O)C[C@@H]1OC[C@H](C[C@@H]2O[C@H]2[C@@H](C)[C@H](C)O)[C@@H](O)[C@H]1O` [mupirocin], 140% and 269%.
